This is an account of results in PMC6112376, “Comprehensive Analyses and Prioritization of Tox21 10K Chemicals Affecting Mitochondrial Function by in-Depth Mechanistic Studies” (Environmental Health Perspectives, 2018).

In data set [1] the test system is rat primary hepatocytes.
In data set [2] the test system is rat primary hepatocytes. In words: MMP assay in rat primary hepatocytes. The settings on record: Hepatocyte, read-out: MMP assays IC50 (µM), Rat Hepatocytes.

Regarding `Cc1cc(/C=C/c2ccc3cc(N(C)C)ccc3[n+]2C)c(C)n1-c1ccccc1` [Pyrvinium pamoate], the “MMP assays efficacy (%), Rat Hepatocytes” value in the data set on rat primary hepatocytes [1] is -87±54%. Besides, the IC50 (in general, the point on the concentration scale where inhibition reaches its midpoint) in the data set with rat primary hepatocytes [2] worked out at 1.03 ± 0.26 µM.
